# Measurements: PubChem BioAssay AID540276 (National Center for Advancing Translational Sciences (NCATS), 2011)
# The whole screen tested about 300,000 compounds, of which about 5,400 (1.8%) were called active. Inconclusive means that the source gave no clear call. Such entries were picked first, then a sample of the others. Calls come from the whole dose curve; tested in HEK293 cells. Where the call is inconclusive, the potency comes from a doubtful curve fit.
# Assay: qHTS for inhibitors of binding or entry into cells for Marburg Virus
# Conditions: Marburg virus pseudotyped entry inhibition, cell reporter; activity change, negative = inhibition: at 37.8 µM (top of the series) unless noted
# % is set by controls: 0 for no effect and ±100 for the full control effect; potency is the fitted concentration of half-maximal effect.
SMILES,Potency,"activity change, negative = inhibition"
O=C(C[n+]1cc(-c2ccc(Cl)c(Cl)c2)n2c1CCC2)N1c2ccccc2Sc2ccccc21,"inconclusive: 16.4 µM [inhibitor, single point]",–
COc1ccc(OC)c(NC(=O)CCn2cccc2)c1,"inconclusive: 35.5 µM [activator, single point]",–
c1ccc(-c2cn3nc4c(nc3n2)CCCC4)cc1,active: 1 µM,–
COc1ccc(/C=N/NC(=O)c2ccn[nH]2)cc1COc1ccc(F)cc1,"inconclusive: 35.5 µM [inhibitor, single point]",–
COc1ccc(S(=O)(=O)N2CCCC2C(=O)Nc2nc3c(s2)CCCC3)cc1 (stereo unspecified),"inconclusive: 35.5 µM [inhibitor, single point]",–
COc1ccc(C(=O)N/C(=C\c2ccc3c(c2)OCO3)C(=O)Nc2ccc(C(=O)O)cc2)cc1,inactive,–
CC(C)(C)Nc1nc(NN)nc(NC(C)(C)C)n1,"inconclusive: 35.5 µM [inhibitor, single point]",–
Cc1ccc(NC(=O)C2CCN(C(=O)c3cnn(-c4ccccc4)c3-n3cccc3)CC2)cc1,"inconclusive: 35.5 µM [inhibitor, single point]",–
COc1ccc(NC(=O)c2c3c(nc4ccccc24)CCC3)cc1,"inconclusive: 0.259 µM [activator, single point]",–
Cc1[nH]c2ccccc2c1/C=N/NC(=O)Nc1ccccc1,"inconclusive: 20.6 µM [inhibitor, single point]",–
CCCN1C2CCCC1CC(NC(=O)Nc1ccc(C(C)C)cc1)C2 (stereo unspecified),"inconclusive: 17.8 µM [inhibitor, partial curve, poor fit]",–
Cc1ccc(-c2csc(=Nc3cccnc3)n2CCCN2CCCC2=O)cc1C,inactive,–
COc1ccc(Cl)cc1NC(=O)Cn1nc(C(F)(F)F)c2c1CCC2,"inconclusive: 5.62 µM [inhibitor, full curve]",–
O=C(Nc1ccccc1N1CCN(C(=O)c2ccc(Cl)cc2)CC1)c1ccc(Br)cc1,"inconclusive: 20.6 µM [inhibitor, single point]",–
O=C(O)CCC(=O)N1CCN(c2ccc(C(=O)c3ccc(F)cc3)cc2)CC1,inactive,–
CCCc1nnc(NC(=O)CSc2nc3ccccc3[nH]2)s1,–,inconclusive: 61.7% [activator] [at 46.1 µM]
NC(=O)C1CCN(C(=O)COc2ccc(S(=O)(=O)NCc3ccccc3)cc2Cl)CC1,"inconclusive: 29.1 µM [inhibitor, partial curve, poor fit]",–
CC(CCc1ccccc1)NC(=O)CN(C)Cc1ccc(F)cc1 (stereo unspecified),"inconclusive: 12.6 µM [inhibitor, partial curve, poor fit]",–
COc1cccc(/C=N/NC(=O)CSc2nnc(C)n2-c2ccccc2)c1O,"inconclusive: 15.8 µM [inhibitor, single point]",–
CCOc1cc(C(=O)OCC(=O)Nc2ccc(SC(F)F)cc2)cc(OCC)c1OCC,"inconclusive: 35.5 µM [inhibitor, single point]",–
Brc1ccc(-n2cnc(-c3ccccc3)c2)cc1,"inconclusive: 0.891 µM [activator, single point]",–

SMILES,Potency,"activity change, negative = inhibition"
COC(=O)c1cc(C(=O)c2cc(Br)ccc2O)coc1=N,inactive,–
CCSc1ncc(/C=N/Nc2ccc(Cl)cc2)n1C,"inconclusive: 2.51 µM [activator, partial curve]",–
COc1ccc(Cl)cc1NC(=O)CN(c1ccccc1)S(=O)(=O)N(C)C,"inconclusive: 22.4 µM [inhibitor, single point]",–
Cc1ccc(CSC2=Nc3ccccc3C3=NC(CC(=O)NCc4ccco4)C(=O)N23)cc1 (stereo unspecified),inactive,–
CSc1cccc(NC(=O)c2cnccn2)c1,"inconclusive: 0.562 µM [inhibitor, partial curve, poor fit]",–
O=C1NC(c2ccc(Cl)cc2Cl)Oc2ccccc21 (stereo unspecified),"inconclusive: 5.62 µM [activator, full curve, poor fit]",–
COc1ccc(N2CC(C(=O)NCCC3=CCCCC3)CC2=O)c(OC)c1 (stereo unspecified),inactive,–
Cc1ccc(NCN2C(=O)C(=O)c3ccccc32)nc1,"inconclusive: 1.26 µM [activator, single point]",–
COc1cc2nc(N(C)C)nc(N)c2cc1OC,"inconclusive: 14.1 µM [inhibitor, single point]",–
O=C(Cn1cc(S(=O)(=O)N2CCN(c3ccccc3F)CC2)c2ccccc2c1=O)NCCCN1CCCCCC1,"inconclusive: 11.2 µM [inhibitor, single point]",–
COC(=O)[C@@]1(Cc2ccc(F)cc2)[C@H]2c3cc(C(=O)N(C)C)n(CCSCCO)c3C[C@H]2CN1C(=O)c1ccccc1,"inconclusive: 0.0046 µM [activator, full curve, poor fit]",–
COc1ccc(C(=O)OCC(=O)N(C)C2CCS(=O)(=O)C2)cc1S(=O)(=O)N(C)Cc1ccccc1 (stereo unspecified),"inconclusive: 0.631 µM [activator, single point]",–
Cc1ccc(Nc2nc(N)nc(CSc3nccn3C)n2)c(C)c1,"inconclusive: 5.62 µM [activator, single point]",–
COc1ccc(N/C=C\C(=O)c2ccc(C)cc2)cc1OC,"inconclusive: 6.31 µM [activator, single point]",–
N#CCC(CNc1ncc(C(F)(F)F)cc1Cl)OC(=O)c1cccc(C(F)(F)F)c1 (stereo unspecified),"inconclusive: 1.12 µM [activator, partial curve, poor fit]",–
CCOP(=O)(OCC)C(Nc1cccc(C(F)(F)F)c1)c1ccc(C)cc1 (stereo unspecified),"inconclusive: 10 µM [inhibitor, partial curve, poor fit]",–
CCOc1ccc(NC(=O)CSc2nncn2C)cc1,"inconclusive: 1.26 µM [inhibitor, full curve, poor fit]",–
Cc1cc(C)n(C(=O)c2nn(C)c(C)c2[N+](=O)[O-])n1,inactive,–
Cc1cc(C)c2cc(C(=O)N3CCC(Cc4ccccc4)CC3)[nH]c2c1,"inconclusive: 35.5 µM [inhibitor, single point]",–
Cc1ccc(C)c(CSc2nnc(-c3cccs3)n2Cc2ccco2)c1,"inconclusive: 25.9 µM [inhibitor, partial curve, poor fit]",–

# An excerpt of these results, with bars between the fields.
SMILES | Potency | activity change, negative = inhibition
COc1ccc(C(=O)OCC(=O)N(C)C2CCS(=O)(=O)C2)cc1S(=O)(=O)N(C)Cc1ccccc1 (stereo unspecified) | inconclusive: 0.631 µM [activator, single point] | –
COc1ccc(N/C=C\C(=O)c2ccc(C)cc2)cc1OC | inconclusive: 6.31 µM [activator, single point] | –
